These results are taken from publication PMC9848351, “Discovery of new pyridine-quinoline hybrids as competitive and non-competitive PIM-1 kinase inhibitors with apoptosis induction and caspase 3/7 activation capabilities” (Journal of Enzyme Inhibition and Medicinal Chemistry, 2023).

Data set [1] concerns liver cancer cell line (HepG-2). The data set is described as follows: MTT anticancer activity, HepG-2. The format is cell-based, human. The following applies: selectivity index, Wi-38 versus HepG-2. The procedure:
(§1) Anticancer effect of the above-mentioned compounds was evaluated using four human cancer cell lines. Colon cancer cells (Caco-2), myeloid leukaemia cell line (NFS-60), liver cancer cell line (HepG-2) and prostate cancer cell line (PC-3) using MTT method was used for assaying cell viability[26] (Supplementary Page S55).
(§2) All final compounds were evaluated against four human cancer cell lines namely; liver cancer (HepG2) (ATCC® HB-8065™), colon cancer (Caco-2) (ATCC® HTB-37™), leukaemia cancer (NFS-60) (ATCC® CRL-1838™), and prostate cancer (PC-3) (ATCC® CRL-1435™) using doxorubicin (Dox) as the reference drug being widely used in tumour management utilising microculture MTT assay, declared by Mosmann[26] (Table 1 in Supplementary Material, Figures 5–8). […]
(§3) MTT method was used for assaying cell viability 25. Twenty microliters of 5 mg/ml MTT (Sigma, USA) was added to each well and the plate was incubated at 37 °C for 3 h. Then MTT solution was removed, 100 µl DMSO was used and the absorbance of each well was measured with a microplate reader ( BMG LabTech, Germany) at 570 nm. The effective concentration (IC 50) and safe dose (EC100) values of the tested compounds that cause 50% and 100% cell viability were estimated by the Graphpad Instat software.
(§4) Determination of the anticancer activity
(§5) Anticancer effect of the above-mentioned compounds was evaluated using four human cancer cell lines. Colon cancer cells (Caco-2) were maintained in DMEM (Lonza, USA) containing 10% FBS while myeloid leukemia cell line (NFS-60), liver cancer cell line (HepG-2) and prostate cancer cell line (PC-3) were cultured in RPMI-1640 (Lonza, USA) supplemented with 10% FBS. All cancer cells (5x10^3 cells/well) were seeded in sterile 96-well plates. After 24h, serial concentrations of the tested compounds and Dox were incubated with four cancer cell lines for 72 h at 37 °C in 5% CO2 incubator. MTT method was done as described above. The Graphpad Instat software was used for calculating the half maximal inhibitory concentration (IC50) values. Furthermore, phase contrast inverted microscope with a digital camera (Olympus, Japan) was used for investigating […]
(§6) safest anticancer compounds. […]

Data set [2] concerns prostate cancer cell line (PC-3). Put plainly: MTT anticancer activity, PC-3. Type of data set: cell-based, human. The following applies: for PC-3 SI: selectivity index, Wi-38 versus PC-3; for PC-3 LE: ligand efficiency from IC50 and number of heavy atoms; for PC-3 LLE: ligand lipophilic efficiency, potency in terms of lipophilicity. Here is the method: as §1, §2, §3, §4, §5, §6

In data set [3] the test system is myeloid leukaemia cell line (NFS-60). Put plainly: MTT anticancer activity, NFS-60. The format is cell-based. As to conditions: selectivity index, Wi-38 versus NFS-60. The procedure:
as §1, §2, §3, §4, §5, §6

Molecules are shown by their SMILES.

Regarding `N#Cc1c(-c2cc3ccccc3nc2N2CCOCC2)cc(-c2cccc(O)c2)nc1OCC(=O)Nc1ccccc1` [11a, 2-((3-Cyano-6-(3-hydroxyphenyl)-4-(2-morpholin-4-yl-quinolin-3-yl)pyridin-2-yl)oxy)-N-phenylacetamide], the “HepG-2 SI” value in data set [1] is given as 0.429. Further, in data set [2], the “PC-3 SI” value is recorded as 0.911. Also, in data set [3], the “NFS-60 SI” value was determined as 1.143.
In the case of `N#Cc1c(-c2cc3cc(Cl)ccc3nc2N2CCOCC2)cc(-c2cccc(O)c2)nc1OCC(=O)Nc1ccc(Cl)cc1` [11e, 2-((4-(6-Chloro-2-morpholin-4-yl-quinolin-3-yl)-3-cyano-6-(3-hydroxyphenyl)pyridin-2-yl)oxy)-N-(4-chlorophenyl)acetamide], the “HepG-2 SI” value in data set [1] is listed as 2.043. Besides, the “PC-3 SI” value in data set [2] is listed as 1.914. The “NFS-60 SI” value in data set [3] was 1.598.
Turning to `COc1ccc(NC(=O)COc2nc(-c3cccc(O)c3)cc(-c3cc4cc(Cl)ccc4nc3N3CCOCC3)c2C#N)cc1` [11f, 2-((4-(6-Chloro-2-morpholin-4-yl-quinolin-3-yl)-3-cyano-6-(3-hydroxyphenyl)pyridin-2-yl)oxy)-N-(4-methoxyphenyl)acetamide], the “HepG-2 SI” value in data set [1] turned out to be 4.986. The “PC-3 SI” value in data set [2] was found to be 3.803. Moreover, in data set [3], the “NFS-60 SI” value is 1.814.
The corresponding values for `N#Cc1c(-c2cc3ccccc3nc2N2CCOCC2)cc(-c2cccc(O)c2)nc1OCC(=O)Nc1ccc(Cl)cc1` [11b, N-(4-Chlorophenyl)-2-((3-cyano-6-(3-hydroxyphenyl)-4-(2-morpholin-4-yl-quinolin-3-yl)pyridin-2-yl)oxy)acetamide] are 4.713, 2.592 and 1.862.
Take `COc1ccc2nc(N3CCOCC3)c(-c3cc(-c4cccc(O)c4)nc(OCC(=O)Nc4ccc(Cl)cc4)c3C#N)cc2c1` [11h, N-(4-Chlorophenyl)-2-((3-cyano-6-(3-hydroxyphenyl)-4-(6-methoxy-2-morpholin-4-yl-quinolin-3-yl)pyridin-2-yl)oxy)acetamide]: in data set [1], the “HepG-2 SI” value is 2.243. For the same compound, the “PC-3 SI” value in data set [2] came out at 2.341. Moreover, in data set [3], the “NFS-60 SI” value was determined as 2.125.
`N#Cc1c(-c2cc3cc(Cl)ccc3[nH]c2=O)cc(-c2cccc(O)c2)[nH]c1=O` [13b, 4-(6-Chloro-2-oxo-1,2-dihydroquinolin-3-yl)-6-(3-hydroxyphenyl)-2-oxo-1,2-dihydropyridine-3-carbonitrile]: in data set [1], the “HepG-2 SI” value is reported as 1.573. Besides, the “PC-3 SI” value in data set [2] is listed as 1.253. The “NFS-60 SI” value in data set [3] was 1.441.
The matching figures for `N#Cc1c(-c2cc3cc(Cl)ccc3[nH]c2=O)cc(-c2cccc(O)c2)nc1N` [15b, 2-Amino-4-(6-chloro-2-oxo-1,2-dihydroquinolin-3-yl)-6-(3-hydroxyphenyl)pyridine-3-carbonitrile]: 0.883, 1.347 and 0.817.
On to `N#Cc1c(-c2cc3ccccc3[nH]c2=O)cc(-c2cccc(O)c2)[nH]c1=O` [13a, 6-(3-Hydroxyphenyl)-2-oxo-4-(2-oxo-1,2-dihydroquinolin-3-yl)-1,2-dihydropyridine-3-carbonitrile], for which the “HepG-2 SI” value in data set [1] was 10.714. In data set [2], the “PC-3 LE” value was 0.39, the “PC-3 LLE” value turned out to be 5.37 and the “PC-3 SI” value was 1.275. In data set [3], the “NFS-60 SI” value was found to be 2.833.
The corresponding values for `COc1ccc2nc(N3CCOCC3)c(-c3cc(-c4cccc(O)c4)[nH]c(=O)c3C#N)cc2c1` [5c, 6-(3-Hydroxyphenyl)-4-(6-methoxy-2-morpholin-4-yl-quinolin-3-yl)-2-oxo-1,2-dihydropyridine-3-carbonitrile] are 94.342, 0.30, 4.12, 26.360 and 39.613.
